No constants are given. Whether binding was seen depends on the method and setting. In cells and extracts the contact can be indirect. Here binding means that the protein was enriched with, or labelled near, the bait; the list need not be complete.
Target: proliferating cell nuclear antigen (PCNA), cytosolic, endogenous in SH-SY5Y cells (human (endogenous in SH-SY5Y)) (UniProt P12004)
Assay: affinity purification with mass spectrometry; immunoprecipitation with anti-PCNA antibody from the cytosolic fraction of SH-SY5Y cells; immunoprecipitates identified by LC-MS/MS

Chains of the proteins cited; added tags and fusions are not shown.
UniProt P12004: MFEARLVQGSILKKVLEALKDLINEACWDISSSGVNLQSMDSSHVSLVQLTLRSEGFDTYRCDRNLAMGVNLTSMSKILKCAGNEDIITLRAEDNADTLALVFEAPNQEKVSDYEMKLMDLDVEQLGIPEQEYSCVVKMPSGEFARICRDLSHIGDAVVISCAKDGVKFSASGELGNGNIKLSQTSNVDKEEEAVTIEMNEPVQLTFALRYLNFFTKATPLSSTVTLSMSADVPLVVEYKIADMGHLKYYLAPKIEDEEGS

B1: peroxiredoxin-6 (protein, UniProt P30041 1-224)
chain: MPGGLLLGDVAPNFEANTTVGRIRFHDFLGDSWGILFSHPRDFTPVCTTELGRAAKLAPEFAKRNVKLIALSIDSVEDHLAWSKDINAYNCEEPTEKLPFPIIDDRNRELAILLGMLDPAEKDEKGMPVTARVVFVFGPDKKLKLSILYPATTGRNFDEILRVVISLQLTAEKRVATPVDWKDGDSVMVLPTIPEEEAKKLFPKGVFTKELPSGKKYLRYTPQP
With B1 the binding was “binds”.
